Measurements as given in patent publication US20210277399A1, “Methods of Imaging and Tracking Nucleic Acids in Cells” (Emory University, priority 2020, published 2021).

What was measured:
[1] = test system: control GFP mRNA lacking MGA; test: Labeling specificity by denaturing PAGE analysis; assay type: biochemical
Neuro-2a cells = test: Live cell imaging of mRNA in stress granules; assay type: cell-based, Mouse; conditions: after arsenite exposure
Description: Experiments were performed to determine whether the MGD2/MGA system would be suitable for live cell imaging of endogenous mRNA localization and dynamics. Moreover, experiments were performed to determine whether one could simultaneously track the real-time localization properties of both RNA and proteins within a living cell. For this assay, Neuro-2a cells were co-transfected with expression plasmids for 1×MGA-mCDK6 and dual GFP-tagged G3BP1 protein. The expressed mRNA was labeled with MGD2 and photo crosslinked. The cells were then imaged to record the spatiotemporal features of both mRNA and protein in stress granules. […] Monitoring the signal intensity, the fluorescent signal generated from the MGD2 labeled granules was observed and remained consistent over >25 min of imaging.
After observing the motility and maturation of the granules, experiments were performed to determine whether one could also observe their dissolution. In mammalian cells, stress granules disassemble in the presence of small aliphatic molecules that disrupt weak hydrophobic interactions. Therefore, 1,6-hexanediol, an aliphatic alcohol commonly used for disassembly of stress granules was added. After arsenite-induced stress granule formation, the cells were incubated in 5% 1,6-hexanediol solution. The fluorescence signal of the labeled 1×MGA-mCDK6 was observed. […]

| Compound | irradiation time after which non-specific labeling of the control mRNA was observed ([1]; 30 μM MGD2, 4 μM control mRNA) [min] | irradiation time after which non-specific labeling of the control mRNA was observed ([1]; 100 μM MGD2, 4 μM control mRNA) [min] | imaging time over which fluorescent signal remained consistent (Neuro-2a cells; MGD2 labeled 1×MGA-mCDK6 granules) [min] | imaging time after which signal showed a sharp decrease (Neuro-2a cells; GFP signal) [min] |
| --- | --- | --- | --- | --- |
| CN(C)c1ccc(C(=C2C=CC(=[N+](C)C)C=C2)c2ccc(NC(=O)CCC3(C)N=N3)cc2)cc1 [MGD2, N-(4-((4-(dimethylamino)phenyl)(4-(3-(3-methyl-3H-diazirin-3-yl) Propan amido)phenyl)methylene)cyclohexa-2,5-dien-1-ylidene)-N-methylmethanaminium Chloride] | 15 | 10 | > 25 |  |
| GFP-tagged G3BP1: dual GFP-tagged G3BP1 protein, stress granule marker co-expressed for comparison |  |  |  | 17 |
